Measurements as given in publication doi:10.1101/2023.04.13.536796.

Sequences of proteins named here, by UniProt entry; tags and fusion partners are left off. Residues count along the entry.
UniProt Q9UBV2, residues 22-794: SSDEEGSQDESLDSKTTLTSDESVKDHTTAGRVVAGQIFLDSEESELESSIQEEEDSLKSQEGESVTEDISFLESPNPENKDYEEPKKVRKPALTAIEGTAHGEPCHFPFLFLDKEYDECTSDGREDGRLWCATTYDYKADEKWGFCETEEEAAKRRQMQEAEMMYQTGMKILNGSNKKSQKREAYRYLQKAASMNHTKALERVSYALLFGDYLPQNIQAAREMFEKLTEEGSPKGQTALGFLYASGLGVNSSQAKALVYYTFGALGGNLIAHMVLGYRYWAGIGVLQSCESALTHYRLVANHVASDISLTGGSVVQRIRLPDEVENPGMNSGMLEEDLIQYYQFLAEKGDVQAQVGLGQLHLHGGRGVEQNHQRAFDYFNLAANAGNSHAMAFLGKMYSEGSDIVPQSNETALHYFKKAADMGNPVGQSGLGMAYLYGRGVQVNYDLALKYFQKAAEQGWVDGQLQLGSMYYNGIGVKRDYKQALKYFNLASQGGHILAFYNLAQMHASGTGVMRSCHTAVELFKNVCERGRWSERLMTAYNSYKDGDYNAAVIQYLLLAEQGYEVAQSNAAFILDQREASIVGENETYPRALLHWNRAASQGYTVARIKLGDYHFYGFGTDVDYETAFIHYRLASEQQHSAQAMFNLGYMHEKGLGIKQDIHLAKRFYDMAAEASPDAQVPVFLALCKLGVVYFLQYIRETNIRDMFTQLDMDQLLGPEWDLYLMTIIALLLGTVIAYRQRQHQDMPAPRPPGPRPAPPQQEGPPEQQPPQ

Molecular target: SEL1L (suppressor of lin-12-like), endogenous (human (endogenous in HEK293T)) (UniProt Q9UBV2)
Assay: affinity purification with mass spectrometry

For “VCP (Valosin containing protein), endogenous (from UniProt P55072 1-806) (enzyme)”, the binding was “binds”.

No constants are given. Whether binding was seen depends on the method and setting. Binding seen in cells or lysates may run through a third protein. Here binding means that the protein was enriched with, or labelled near, the bait; the list need not be complete.
